{"source": "paper PMC12229684", "biological_target": "T1, epidermal growth factor latrophilin and seven transmembrane domain-containing protein 1 (ELTD1), Flag-tagged (human) (UniProt Q9HBW9)", "T1 sequence": "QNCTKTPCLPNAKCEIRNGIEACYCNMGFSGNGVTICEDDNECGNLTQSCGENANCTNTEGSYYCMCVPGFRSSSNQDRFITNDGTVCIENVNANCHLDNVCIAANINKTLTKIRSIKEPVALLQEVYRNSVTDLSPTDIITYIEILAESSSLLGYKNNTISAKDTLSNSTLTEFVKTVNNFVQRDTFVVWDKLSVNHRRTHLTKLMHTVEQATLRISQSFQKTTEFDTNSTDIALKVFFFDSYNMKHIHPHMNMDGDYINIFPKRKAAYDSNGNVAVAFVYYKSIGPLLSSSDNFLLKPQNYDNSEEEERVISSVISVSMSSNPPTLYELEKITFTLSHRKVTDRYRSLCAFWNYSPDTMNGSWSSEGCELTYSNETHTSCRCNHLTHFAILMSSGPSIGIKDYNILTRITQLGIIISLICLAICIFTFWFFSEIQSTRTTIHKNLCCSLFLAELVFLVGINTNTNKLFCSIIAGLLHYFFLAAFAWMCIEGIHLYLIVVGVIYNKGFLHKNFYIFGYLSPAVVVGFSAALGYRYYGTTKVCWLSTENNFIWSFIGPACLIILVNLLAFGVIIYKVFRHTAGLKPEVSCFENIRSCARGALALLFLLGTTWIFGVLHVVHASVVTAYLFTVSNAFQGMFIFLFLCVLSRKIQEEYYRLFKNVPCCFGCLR", "experiment": "affinity purification with mass spectrometry; lysate of cell lines expressing Flag-ELTD1, anti-Flag M2 magnetic beads, 4 °C overnight, SDS-PAGE, silver staining, tryptic digestion, Orbitrap Exploris 480", "note": "No constants are given. Whether binding was seen depends on the method and setting. In cells and extracts the contact can be indirect. A yes stands for co-enrichment or nearness to the bait. Other partners may have been found. Sequences can lack the tags named with a protein.", "data": [{"binder": "HPIP (hematopoietic PBX1-interacting protein) (protein, UniProt Q96AQ6 1-731) MASCPDSDNSWVLAGSESLPVETLGPASRMDPESERALQAPHSPSKTDGKELAGTMDGEGTLFQTESPQSGSILTEETEVKGTLEGDVCGVEPPGPGDTVVQGDLQETTVVTGLGPDTQDLEGQSPPQSLPSTPKAAWIREEGRCSSSDDDTDVDMEGLRRRRGREAGPPQPMVPLAVENQAGGEGAGGELGISLNMCLLGALVLLGLGVLLFSGGLSESETGPMEEVERQVLPDPEVLEAVGDRQDGLREQLQAPVPPDSVPSLQNMGLLLDKLAKENQDIRLLQAQLQAQKEELQSLMHQPKGLEEENAQLRGALQQGEAFQRALESELQQLRARLQGLEADCVRGPDGVCLSGGRGPQGDKAIREQGPREQEPELSFLKQKEQLEAEAQALRQELERQRRLLGSVQQDLERSLQDASRGDPAHAGLAELGHRLAQKLQGLENWGQDPGVSANASKAWHQKSHFQNSREWSGKEKWWDGQRDRKAEHWKHKKEESGRERKKNWGGQEDREPAGRWKEGRPRVEESGSKKEGKRQGPKEPPRKSGSFHSSGEKQKQPRWREGTKDSHDPLPSWAELLRPKYRAPQGCSGVDECARQEGLTFFGTELAPVRQQELASLLRTYLARLPWAGQLTKELPLSPAFFGEDGIFRHDRLRFRDFVDALEDSLEEVAVQQTGDDDEVDDFEDFIFSHFFGDKALKKRSGKKDKHSQSPRAAGPREGHSHSHHHHHRG", "values": [{"measurement": "binding", "result": "binds"}]}]}
